PMC5897841, “Development of a multipurpose scaffold for the display of peptide loops” (Protein Engineering, Design and Selection, 2017)
No constants are given. Whether binding was seen depends on the method and setting.

Target: Aurora A_(D274N) kinase domain (human) (UniProt O14965)
Assay: AUC; sedimentation velocity, absorbance at 280 nm, 50 000 rpm, 20°C, 20 mM HEPES pH 7.5, 500 mM NaCl; single proteins and mixtures (5 μM each CK2α and RAD-CK2β; 10 μM each Aurora A D274N and RAD-TPX2); both purified

binding: no binding (tested: 10 μM)
B1: Aurora A_(D274N) kinase domain (domain or fragment, UniProt O14965 122-403)
chain: ESKKRQWALEDFEIGRPLGKGKFGNVYLAREKQSKFILALKVLFKAQLEKAGVEHQLRREVEIQSHLRHPNILRLYGYFHDATRVYLILEYAPLGTVYRELQKLSKFDEQRTATYITELANALSYCHSKRVIHRDIKPENLLLGSAGELKIANFGWSVHAPSSRRTTLCGTLDYLPPEMIEGRMHDEKVDLWSLGVLCYEFLVGKPPFEANTYQETYKRISRVEFTFPDFVTEGARDLISRLLKHNPSQRPMLREVLEHPWITANSSKPSNCQNKESASKQS
